This is one part of the list. The data scatter; read single values as rough.

Amino acid sequences for entries named in this document (tags omitted). A change or cut given only in a name is not applied to a line headed by its entry. Residues count along the entry.
UniProt Q16875, 148-169: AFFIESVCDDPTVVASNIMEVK
UniProt Q6PCE3: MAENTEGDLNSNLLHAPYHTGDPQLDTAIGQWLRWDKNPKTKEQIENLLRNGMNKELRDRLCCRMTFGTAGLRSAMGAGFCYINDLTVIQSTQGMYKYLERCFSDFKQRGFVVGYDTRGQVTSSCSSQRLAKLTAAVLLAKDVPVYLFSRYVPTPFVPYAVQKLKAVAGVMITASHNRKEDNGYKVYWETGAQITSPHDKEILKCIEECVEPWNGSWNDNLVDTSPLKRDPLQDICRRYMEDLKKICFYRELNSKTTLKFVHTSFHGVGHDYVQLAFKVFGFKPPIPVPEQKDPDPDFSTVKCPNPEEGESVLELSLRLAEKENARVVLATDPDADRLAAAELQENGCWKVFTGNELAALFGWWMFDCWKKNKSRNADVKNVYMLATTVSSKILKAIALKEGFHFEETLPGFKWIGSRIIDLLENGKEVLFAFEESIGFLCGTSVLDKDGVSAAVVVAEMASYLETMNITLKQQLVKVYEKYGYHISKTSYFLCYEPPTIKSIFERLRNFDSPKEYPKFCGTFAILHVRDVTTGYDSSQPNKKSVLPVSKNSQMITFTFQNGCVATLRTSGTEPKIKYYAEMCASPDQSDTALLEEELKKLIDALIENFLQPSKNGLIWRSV
UniProt Q16822: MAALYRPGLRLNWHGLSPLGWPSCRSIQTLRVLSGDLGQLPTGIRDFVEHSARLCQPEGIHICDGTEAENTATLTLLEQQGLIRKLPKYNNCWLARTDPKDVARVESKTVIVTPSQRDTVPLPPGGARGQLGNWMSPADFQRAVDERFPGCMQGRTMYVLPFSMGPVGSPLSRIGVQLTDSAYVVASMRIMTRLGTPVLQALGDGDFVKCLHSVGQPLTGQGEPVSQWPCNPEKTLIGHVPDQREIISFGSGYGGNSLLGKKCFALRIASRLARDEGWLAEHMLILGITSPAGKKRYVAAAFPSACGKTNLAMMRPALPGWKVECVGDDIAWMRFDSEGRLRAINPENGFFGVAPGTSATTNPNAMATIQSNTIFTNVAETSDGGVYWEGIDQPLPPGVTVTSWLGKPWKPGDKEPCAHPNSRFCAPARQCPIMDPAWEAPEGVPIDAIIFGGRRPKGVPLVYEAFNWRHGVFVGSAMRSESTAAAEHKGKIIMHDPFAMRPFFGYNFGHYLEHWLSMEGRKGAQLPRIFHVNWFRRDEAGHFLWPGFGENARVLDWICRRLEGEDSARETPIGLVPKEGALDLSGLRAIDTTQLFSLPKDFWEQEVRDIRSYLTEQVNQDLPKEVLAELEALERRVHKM
UniProt Q5JVF3: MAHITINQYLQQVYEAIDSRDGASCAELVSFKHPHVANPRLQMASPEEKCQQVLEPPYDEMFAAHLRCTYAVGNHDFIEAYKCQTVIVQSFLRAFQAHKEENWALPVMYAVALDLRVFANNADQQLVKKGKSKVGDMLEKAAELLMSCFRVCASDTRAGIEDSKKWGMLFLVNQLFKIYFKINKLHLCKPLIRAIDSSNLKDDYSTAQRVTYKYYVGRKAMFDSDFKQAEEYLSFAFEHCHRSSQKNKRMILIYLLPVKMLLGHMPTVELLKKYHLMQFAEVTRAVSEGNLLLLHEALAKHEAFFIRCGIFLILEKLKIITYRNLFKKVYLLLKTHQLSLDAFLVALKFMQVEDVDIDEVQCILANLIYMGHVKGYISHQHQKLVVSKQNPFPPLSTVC
UniProt Q6ZW49: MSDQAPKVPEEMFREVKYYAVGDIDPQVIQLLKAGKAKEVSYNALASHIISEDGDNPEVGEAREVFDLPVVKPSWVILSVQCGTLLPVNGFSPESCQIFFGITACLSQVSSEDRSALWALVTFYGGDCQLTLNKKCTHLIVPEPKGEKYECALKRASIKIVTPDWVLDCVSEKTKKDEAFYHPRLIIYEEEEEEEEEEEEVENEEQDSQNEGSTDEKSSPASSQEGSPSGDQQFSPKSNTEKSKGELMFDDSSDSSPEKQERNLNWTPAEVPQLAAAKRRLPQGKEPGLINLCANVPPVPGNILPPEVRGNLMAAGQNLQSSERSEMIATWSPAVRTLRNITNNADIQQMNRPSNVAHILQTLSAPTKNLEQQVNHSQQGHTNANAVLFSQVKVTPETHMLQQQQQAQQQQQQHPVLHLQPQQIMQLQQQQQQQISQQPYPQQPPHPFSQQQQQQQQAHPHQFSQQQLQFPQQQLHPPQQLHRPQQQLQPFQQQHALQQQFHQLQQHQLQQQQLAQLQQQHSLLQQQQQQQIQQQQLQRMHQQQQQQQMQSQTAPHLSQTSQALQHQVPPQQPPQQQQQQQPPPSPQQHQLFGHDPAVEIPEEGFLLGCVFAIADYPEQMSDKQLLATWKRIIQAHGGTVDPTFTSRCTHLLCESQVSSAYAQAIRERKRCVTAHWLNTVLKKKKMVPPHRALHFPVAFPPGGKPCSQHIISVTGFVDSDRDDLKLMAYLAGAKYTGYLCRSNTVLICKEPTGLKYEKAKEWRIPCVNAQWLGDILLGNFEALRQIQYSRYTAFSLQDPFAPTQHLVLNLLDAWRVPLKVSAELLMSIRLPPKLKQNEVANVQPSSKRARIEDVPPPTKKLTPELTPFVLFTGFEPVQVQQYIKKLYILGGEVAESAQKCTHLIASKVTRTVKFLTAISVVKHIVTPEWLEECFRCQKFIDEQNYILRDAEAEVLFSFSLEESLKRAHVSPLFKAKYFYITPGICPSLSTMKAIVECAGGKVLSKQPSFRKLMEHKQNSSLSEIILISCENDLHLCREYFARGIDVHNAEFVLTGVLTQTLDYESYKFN
UniProt Q92791: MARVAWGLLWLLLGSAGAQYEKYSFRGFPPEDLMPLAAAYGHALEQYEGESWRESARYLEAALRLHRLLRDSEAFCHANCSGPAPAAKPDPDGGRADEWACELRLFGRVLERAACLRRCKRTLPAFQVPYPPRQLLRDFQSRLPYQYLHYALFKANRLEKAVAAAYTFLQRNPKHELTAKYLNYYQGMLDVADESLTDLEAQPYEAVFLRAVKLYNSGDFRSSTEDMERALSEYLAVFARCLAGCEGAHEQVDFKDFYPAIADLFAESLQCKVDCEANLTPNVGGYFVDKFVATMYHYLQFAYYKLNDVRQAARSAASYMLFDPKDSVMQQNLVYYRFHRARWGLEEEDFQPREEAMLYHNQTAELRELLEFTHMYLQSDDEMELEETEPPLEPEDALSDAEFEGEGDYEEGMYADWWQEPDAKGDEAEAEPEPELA
UniProt O15067: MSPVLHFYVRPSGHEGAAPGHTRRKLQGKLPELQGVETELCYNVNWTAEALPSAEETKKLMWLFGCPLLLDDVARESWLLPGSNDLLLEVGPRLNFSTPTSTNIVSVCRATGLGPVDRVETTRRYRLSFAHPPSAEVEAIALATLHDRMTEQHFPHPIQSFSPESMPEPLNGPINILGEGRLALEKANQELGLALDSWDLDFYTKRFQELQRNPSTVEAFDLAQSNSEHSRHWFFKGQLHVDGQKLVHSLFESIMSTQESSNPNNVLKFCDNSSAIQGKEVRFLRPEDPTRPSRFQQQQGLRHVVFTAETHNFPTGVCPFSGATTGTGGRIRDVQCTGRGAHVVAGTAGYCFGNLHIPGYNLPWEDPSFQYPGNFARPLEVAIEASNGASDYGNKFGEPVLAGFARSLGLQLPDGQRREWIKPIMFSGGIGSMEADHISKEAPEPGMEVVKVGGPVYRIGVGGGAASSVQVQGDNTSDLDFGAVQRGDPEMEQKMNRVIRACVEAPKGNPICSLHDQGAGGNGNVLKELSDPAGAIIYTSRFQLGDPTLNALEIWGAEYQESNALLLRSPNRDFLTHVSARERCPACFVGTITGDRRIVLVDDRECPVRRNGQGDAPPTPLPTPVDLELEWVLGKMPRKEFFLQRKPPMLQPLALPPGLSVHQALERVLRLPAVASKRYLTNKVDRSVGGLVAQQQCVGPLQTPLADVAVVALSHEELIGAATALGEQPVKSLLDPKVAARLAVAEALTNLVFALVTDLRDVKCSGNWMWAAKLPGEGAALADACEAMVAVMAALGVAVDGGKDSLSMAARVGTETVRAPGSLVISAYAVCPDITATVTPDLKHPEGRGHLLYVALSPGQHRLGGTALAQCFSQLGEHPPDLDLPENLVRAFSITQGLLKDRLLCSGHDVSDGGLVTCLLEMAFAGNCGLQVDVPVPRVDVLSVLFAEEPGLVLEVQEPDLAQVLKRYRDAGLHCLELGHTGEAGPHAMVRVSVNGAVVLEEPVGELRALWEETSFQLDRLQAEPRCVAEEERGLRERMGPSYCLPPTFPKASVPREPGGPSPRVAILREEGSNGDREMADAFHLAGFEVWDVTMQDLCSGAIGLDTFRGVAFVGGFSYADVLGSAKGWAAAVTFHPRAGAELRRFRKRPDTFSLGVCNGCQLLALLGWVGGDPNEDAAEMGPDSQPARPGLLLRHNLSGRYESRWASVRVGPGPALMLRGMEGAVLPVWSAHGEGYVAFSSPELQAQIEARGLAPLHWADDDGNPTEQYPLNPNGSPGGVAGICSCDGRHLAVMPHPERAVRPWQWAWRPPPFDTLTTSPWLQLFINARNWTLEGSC
UniProt P00558: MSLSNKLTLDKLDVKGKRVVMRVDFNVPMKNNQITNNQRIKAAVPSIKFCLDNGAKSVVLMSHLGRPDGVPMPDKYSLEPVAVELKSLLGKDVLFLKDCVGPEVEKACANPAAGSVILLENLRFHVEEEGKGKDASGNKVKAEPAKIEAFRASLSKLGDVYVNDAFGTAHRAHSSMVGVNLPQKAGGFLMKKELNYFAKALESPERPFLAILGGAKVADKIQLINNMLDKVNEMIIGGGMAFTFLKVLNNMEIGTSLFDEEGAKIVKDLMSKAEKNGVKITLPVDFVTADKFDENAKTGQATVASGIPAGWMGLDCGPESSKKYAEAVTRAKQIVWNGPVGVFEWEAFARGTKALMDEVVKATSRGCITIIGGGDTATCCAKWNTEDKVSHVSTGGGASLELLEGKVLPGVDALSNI
UniProt O95340: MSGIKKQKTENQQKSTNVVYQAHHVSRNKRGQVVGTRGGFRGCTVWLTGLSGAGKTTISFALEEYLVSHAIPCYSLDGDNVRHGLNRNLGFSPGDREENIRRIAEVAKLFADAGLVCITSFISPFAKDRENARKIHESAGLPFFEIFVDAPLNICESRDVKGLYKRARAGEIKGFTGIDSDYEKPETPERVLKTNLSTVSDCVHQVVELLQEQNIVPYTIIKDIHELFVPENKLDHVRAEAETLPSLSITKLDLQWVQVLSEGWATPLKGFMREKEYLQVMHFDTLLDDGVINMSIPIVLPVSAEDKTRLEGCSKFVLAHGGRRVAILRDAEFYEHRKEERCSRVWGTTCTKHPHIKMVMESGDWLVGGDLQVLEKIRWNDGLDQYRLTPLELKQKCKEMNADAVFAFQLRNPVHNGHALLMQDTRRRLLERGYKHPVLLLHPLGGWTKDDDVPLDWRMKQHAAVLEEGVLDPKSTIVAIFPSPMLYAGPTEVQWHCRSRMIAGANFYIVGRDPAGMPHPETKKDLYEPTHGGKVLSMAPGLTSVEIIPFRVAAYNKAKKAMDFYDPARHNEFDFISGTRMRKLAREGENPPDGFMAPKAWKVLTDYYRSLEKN
UniProt P13674: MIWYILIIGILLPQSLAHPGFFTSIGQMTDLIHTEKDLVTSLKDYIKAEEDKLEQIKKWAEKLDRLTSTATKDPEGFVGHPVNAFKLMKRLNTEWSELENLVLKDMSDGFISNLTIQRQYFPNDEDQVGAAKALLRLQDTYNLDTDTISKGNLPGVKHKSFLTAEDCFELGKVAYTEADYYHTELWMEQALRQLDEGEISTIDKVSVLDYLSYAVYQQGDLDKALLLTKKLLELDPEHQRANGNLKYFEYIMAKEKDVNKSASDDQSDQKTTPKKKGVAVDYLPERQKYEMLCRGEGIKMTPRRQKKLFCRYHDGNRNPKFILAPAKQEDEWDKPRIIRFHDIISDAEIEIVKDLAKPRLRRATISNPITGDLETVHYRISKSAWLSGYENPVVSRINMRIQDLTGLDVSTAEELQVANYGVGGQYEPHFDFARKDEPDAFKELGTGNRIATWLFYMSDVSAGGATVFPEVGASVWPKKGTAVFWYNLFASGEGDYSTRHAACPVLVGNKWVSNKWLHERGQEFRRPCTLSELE
UniProt P49585: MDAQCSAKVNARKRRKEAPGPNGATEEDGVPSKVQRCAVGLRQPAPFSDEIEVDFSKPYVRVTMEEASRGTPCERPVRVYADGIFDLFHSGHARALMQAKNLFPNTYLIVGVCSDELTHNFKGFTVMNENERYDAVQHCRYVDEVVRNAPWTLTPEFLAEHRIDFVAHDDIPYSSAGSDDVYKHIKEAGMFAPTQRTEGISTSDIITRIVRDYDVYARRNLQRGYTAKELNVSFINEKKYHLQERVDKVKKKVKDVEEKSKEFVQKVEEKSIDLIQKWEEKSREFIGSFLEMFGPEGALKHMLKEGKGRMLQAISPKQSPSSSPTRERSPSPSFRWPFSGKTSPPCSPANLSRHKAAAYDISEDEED

Compound in the first experiment: ClCC(=O)N[C@@H]1CCCc2ccccc12
Nature of the experiment: log2 mean competition ratio of IA-DTB cysteine labelling (DMSO/compound) (log2 ratio); higher = stronger cysteine engagement by compound. The following applies: 50 µM; treatment time: 4 h; cell line lysate: HEK293T. The protocol:
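IA-DTB competitive cysteine chemoproteomics in HEK293T RIPA lysate. Lysates were treated with compound 29 or 30 at 50 or 200 µM for 4 h, then IA-DTB (500 µM, 1 h), trypsin-digested, NeutrAvidin-enriched and analysed by diaPASEF. Competition ratio = intensity DMSO / intensity compound (n=4 treated, n=64 DMSO); binding: mean log2 CR ≥ 1 and p ≤ 0.05 plus QC filters. Target is the cysteine site.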
With PAIP1 C470 (UniProt Q9H074), the “log2 mean competition ratio” value was -0.0626.

PEX5 C423: the “log2 mean competition ratio” value was -0.407.

With PFKFB3 C440 (UniProt Q16875), the “log2 mean competition ratio” value turned out to be 0.205.

As for PGM2L1 C125 (UniProt Q6PCE3), the “log2 mean competition ratio” value turned out to be 0.13.

PCK2 C325 (UniProt Q16822): the “log2 mean competition ratio” value is -0.0209.

With PCID2 C152 (UniProt Q5JVF3), the “log2 mean competition ratio” value came out at 0.0104.

With PAXIP1 C933 (UniProt Q6ZW49), the “log2 mean competition ratio” value is -0.38.

Take PFKFB3 C155 (UniProt Q16875): the “log2 mean competition ratio” value is -0.746.

PDCD11 C599 (UniProt Q14690): the “log2 mean competition ratio” value was -0.152.

Turning to P3H4 C101 (UniProt Q92791), the “log2 mean competition ratio” value was -0.0497.

On to PHF19 C498 (UniProt Q5T6S3), for which the “log2 mean competition ratio” value was 0.282.

With PFAS C1044 (UniProt O15067), the “log2 mean competition ratio” value stood at 0.441.

As for PGK1 C50 (UniProt P00558), the “log2 mean competition ratio” value was -0.00476.

In the case of PABPN1 C205 (UniProt Q86U42), the “log2 mean competition ratio” value is -0.143.

Regarding PDPK1;PDPK2P C327;(C300), the “log2 mean competition ratio” value stood at 0.151.

With PANK4 C513 (UniProt Q9NVE7), the “log2 mean competition ratio” value turned out to be 0.0119.

Consider PAPSS2 C350 (UniProt O95340), for which the “log2 mean competition ratio” value was determined as 0.693.

For PEPD C482 (UniProt P12955), the “log2 mean competition ratio” value is -0.0538.

As to P4HA1 C503 (UniProt P13674), the “log2 mean competition ratio” value was 0.0269.

For PCYT1A C5 (UniProt P49585), the “log2 mean competition ratio” value is -0.341.

The same experiment, now with this note: 200 µM; treatment time: 4 h; cell line lysate: HEK293T.
With PAIP1 C470 (UniProt Q9H074), the “log2 mean competition ratio” value was -0.0417.

Regarding PEX5 C423, the “log2 mean competition ratio” value is -0.262.

For PFKFB3 C440 (UniProt Q16875), the “log2 mean competition ratio” value was found to be 0.177.

On to PGM2L1 C125 (UniProt Q6PCE3), for which the “log2 mean competition ratio” value turned out to be 0.0588.

As to PCK2 C325 (UniProt Q16822), the “log2 mean competition ratio” value was 0.224.

Take PCID2 C152 (UniProt Q5JVF3): the “log2 mean competition ratio” value was 0.0714.

For PAXIP1 C933 (UniProt Q6ZW49), the “log2 mean competition ratio” value was -0.192.

As for PFKFB3 C155 (UniProt Q16875), the “log2 mean competition ratio” value was 0.624.

In the case of PDCD11 C599 (UniProt Q14690), the “log2 mean competition ratio” value stood at 0.189.

In the case of P3H4 C101 (UniProt Q92791), the “log2 mean competition ratio” value was -0.0788.

Consider PHF19 C498 (UniProt Q5T6S3), for which the “log2 mean competition ratio” value was -0.349.

In the case of PFAS C1044 (UniProt O15067), the “log2 mean competition ratio” value was determined as 0.066.

Take PGK1 C50 (UniProt P00558): the “log2 mean competition ratio” value came to 0.131.

With PABPN1 C205 (UniProt Q86U42), the “log2 mean competition ratio” value is -0.0796.

Consider PDPK1;PDPK2P C327;(C300), for which the “log2 mean competition ratio” value was -0.046.

With PANK4 C513 (UniProt Q9NVE7), the “log2 mean competition ratio” value is -0.0228.

With PAPSS2 C350 (UniProt O95340), the “log2 mean competition ratio” value came out at 1.67.

Take PEPD C482 (UniProt P12955): the “log2 mean competition ratio” value is 0.248.

For the target P4HA1 C503 (UniProt P13674), the “log2 mean competition ratio” value was -0.0782.

As for PCYT1A C5 (UniProt P49585), the “log2 mean competition ratio” value is -0.159.

The values above are taken from the supplement of paper PMC11732987, “Enantioselective OTUD7B fragment discovery through chemoproteomics screening and high-throughput optimisation” (Communications Chemistry, 2025).
